This is an account of results in publication PMC7555897.

Amino acid sequences for entries named in this document (tags omitted).
UniProt Q9BXW9: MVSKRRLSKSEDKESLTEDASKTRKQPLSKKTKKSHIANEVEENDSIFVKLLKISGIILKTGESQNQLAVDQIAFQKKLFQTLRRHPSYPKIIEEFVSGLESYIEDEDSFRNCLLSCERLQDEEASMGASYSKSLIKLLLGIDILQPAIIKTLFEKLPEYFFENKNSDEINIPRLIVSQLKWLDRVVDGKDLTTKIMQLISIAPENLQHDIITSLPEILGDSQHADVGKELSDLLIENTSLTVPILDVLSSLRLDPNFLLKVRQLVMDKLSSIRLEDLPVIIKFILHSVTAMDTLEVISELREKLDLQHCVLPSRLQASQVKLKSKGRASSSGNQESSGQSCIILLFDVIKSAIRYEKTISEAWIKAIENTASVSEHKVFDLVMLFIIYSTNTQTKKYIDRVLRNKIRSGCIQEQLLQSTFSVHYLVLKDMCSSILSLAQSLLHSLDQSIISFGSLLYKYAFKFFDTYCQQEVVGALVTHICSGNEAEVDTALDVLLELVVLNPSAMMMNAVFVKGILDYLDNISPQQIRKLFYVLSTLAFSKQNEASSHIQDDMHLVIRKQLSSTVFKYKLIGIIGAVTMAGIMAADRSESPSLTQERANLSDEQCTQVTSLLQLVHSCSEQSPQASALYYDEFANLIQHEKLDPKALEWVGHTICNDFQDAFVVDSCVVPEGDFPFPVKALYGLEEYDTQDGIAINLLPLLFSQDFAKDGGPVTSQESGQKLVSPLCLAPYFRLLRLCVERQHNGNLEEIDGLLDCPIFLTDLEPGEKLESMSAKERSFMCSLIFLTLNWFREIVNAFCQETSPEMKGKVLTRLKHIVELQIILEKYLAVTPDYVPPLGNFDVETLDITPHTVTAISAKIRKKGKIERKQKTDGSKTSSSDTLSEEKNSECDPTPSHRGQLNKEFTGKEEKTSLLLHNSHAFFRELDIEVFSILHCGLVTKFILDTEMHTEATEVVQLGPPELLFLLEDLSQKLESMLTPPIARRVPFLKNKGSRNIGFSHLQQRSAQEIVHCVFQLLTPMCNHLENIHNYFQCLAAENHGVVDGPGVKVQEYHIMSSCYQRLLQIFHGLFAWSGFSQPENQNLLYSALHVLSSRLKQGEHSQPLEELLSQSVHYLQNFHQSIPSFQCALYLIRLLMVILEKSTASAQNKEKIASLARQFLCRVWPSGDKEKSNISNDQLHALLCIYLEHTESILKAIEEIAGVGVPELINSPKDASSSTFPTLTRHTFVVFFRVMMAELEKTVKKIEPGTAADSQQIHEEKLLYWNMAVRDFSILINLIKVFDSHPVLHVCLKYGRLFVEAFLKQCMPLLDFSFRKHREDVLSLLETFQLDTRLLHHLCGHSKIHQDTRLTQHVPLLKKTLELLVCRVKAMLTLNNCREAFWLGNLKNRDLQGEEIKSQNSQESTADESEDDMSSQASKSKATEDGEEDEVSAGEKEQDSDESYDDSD
UniProt Q9NVI1: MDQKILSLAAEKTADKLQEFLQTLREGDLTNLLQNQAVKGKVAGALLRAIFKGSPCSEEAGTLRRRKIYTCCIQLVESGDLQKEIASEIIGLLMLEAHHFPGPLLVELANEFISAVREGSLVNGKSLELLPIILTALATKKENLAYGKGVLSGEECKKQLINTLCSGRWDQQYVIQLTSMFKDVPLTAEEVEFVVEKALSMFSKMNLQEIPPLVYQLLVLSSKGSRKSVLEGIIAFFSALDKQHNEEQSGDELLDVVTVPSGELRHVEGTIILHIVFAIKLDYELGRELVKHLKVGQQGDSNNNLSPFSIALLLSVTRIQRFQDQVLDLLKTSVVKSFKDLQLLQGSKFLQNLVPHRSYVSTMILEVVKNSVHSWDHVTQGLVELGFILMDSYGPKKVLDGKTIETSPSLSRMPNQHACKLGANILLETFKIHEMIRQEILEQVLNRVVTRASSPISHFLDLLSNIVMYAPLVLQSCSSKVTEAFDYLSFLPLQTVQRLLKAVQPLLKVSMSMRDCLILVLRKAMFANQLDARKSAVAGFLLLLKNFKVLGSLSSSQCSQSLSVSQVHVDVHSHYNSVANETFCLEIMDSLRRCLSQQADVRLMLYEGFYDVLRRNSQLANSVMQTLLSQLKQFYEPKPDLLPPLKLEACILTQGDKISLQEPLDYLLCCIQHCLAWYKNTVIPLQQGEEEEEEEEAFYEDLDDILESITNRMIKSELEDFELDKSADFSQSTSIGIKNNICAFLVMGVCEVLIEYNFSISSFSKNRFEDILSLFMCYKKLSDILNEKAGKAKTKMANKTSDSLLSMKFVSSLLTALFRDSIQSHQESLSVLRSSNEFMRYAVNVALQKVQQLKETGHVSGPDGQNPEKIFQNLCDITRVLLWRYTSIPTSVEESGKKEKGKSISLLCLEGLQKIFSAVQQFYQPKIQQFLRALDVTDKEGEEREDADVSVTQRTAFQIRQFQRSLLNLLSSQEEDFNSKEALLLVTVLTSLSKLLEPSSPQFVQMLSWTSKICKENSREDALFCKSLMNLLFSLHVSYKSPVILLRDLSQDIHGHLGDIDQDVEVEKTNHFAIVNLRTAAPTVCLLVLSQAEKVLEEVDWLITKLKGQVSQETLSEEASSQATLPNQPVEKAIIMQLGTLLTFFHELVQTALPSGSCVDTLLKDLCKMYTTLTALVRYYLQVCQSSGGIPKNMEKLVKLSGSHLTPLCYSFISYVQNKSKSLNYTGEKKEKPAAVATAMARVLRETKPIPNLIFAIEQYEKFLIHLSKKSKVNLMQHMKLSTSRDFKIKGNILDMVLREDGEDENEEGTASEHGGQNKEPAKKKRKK

No constants are given. Whether binding was seen depends on the method and setting. In cells and extracts the contact can be indirect. Some results given as binding are weak or reduced against the parent protein; the word gives no strength.

Assay [1] deals with FLAG-p62 (p62/SQSTM1), expressed in H1299 cells (UniProt Q13501). The assay can be described thus: co-IP; H1299 cells transfected with siRNA oligos (control or RPS27L), then mock vector or FLAG-p62 for 48 h, treated with CQ (50 µM) for 24 h; IP with FLAG beads, immunoblot of endogenous proteins.
Assay [2] has as its target FLAG-p62 (p62/SQSTM1), expressed in 293 cells (UniProt Q13501). The assay can be described thus: co-IP; 293 cells co-transfected with MYC-tagged FANCD2 and FANCI and FLAG-p62 for 48 h; IP with FLAG beads, immunoblot.

As to “FANCD2, endogenous in H1299 cells (from UniProt Q9BXW9 1-1451)”, the binding entry in assay [1] is “binds”.

For “MYC-tagged FANCD2 (from UniProt Q9BXW9 1-1451)”, the binding entry in assay [2] is given as “binds”.

“FANCI, endogenous in H1299 cells (from UniProt Q9NVI1 1-1328)”: the binding result in assay [1] is given as “binds”.

In the case of “MYC-tagged FANCI (from UniProt Q9NVI1 1-1328)”, the binding entry in assay [2] is given as “binds”.
